PubChem BioAssay AID686938 | Drosophila RNAi Screening Center, 2013

Screen: 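Looking for CRAC channel components and the factors controlling them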 (primary screen)
Cell system: Drosophila S2R+ cells
Reagent: long dsRNA against Drosophila genes, about 0.25 µg dsRNA per well, roughly 10,000 cells
Timing: 5 days of knock-down before the calcium assay
Conditions: thapsigargin (SERCA pump blocker) to empty calcium stores; entry signal taken 4 min after adding it
Measured: 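Duplicate raw fluo-4 intensities per well from a plate reader, at rest and four minutes after thapsigargin emptied calcium stores; entry-to-rest ratio filled for only some wells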
Direction: calcium entry signal: higher = stronger calcium signal after store depletion; entry to resting ratio: higher = more calcium entry relative to resting level; resting calcium signal: higher = higher resting calcium signal
Rule for the call: 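Called when the plate z-score of the entry-to-rest ratio, mean of duplicates, falls below −3; wells with low overall dye signal (Fmax z below −2) or more than five off-targets excluded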
Calls: active = strongly reduced calcium entry; inactive = no strong reduction
The deposit covers about 23,000 reagents; this is a random part of those that have a named target and a result. In the full data, 75 (0.33%) got an active call. 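Raw plate signals without normalisation; calls rest on plate z-scores that were not deposited; ratio present for only 364 wells.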 Unmarked entries are inactive. The record does not give: the dose of the treatment.

gene	PubChem SID	calcium entry signal, replicate 1 (fluorescence units)	calcium entry signal, replicate 2 (fluorescence units)	entry to resting ratio	resting calcium signal, replicate 1 (fluorescence units)	resting calcium signal, replicate 2 (fluorescence units)
Uhg3 (U snoRNA host gene 3)	SID104202320	3.97e7	3.24e7		1.93e7	1.25e7
Bx42	SID104197535	1.52e7	1.53e7		1.01e7	9.68e6
CG11912	SID104180124	4.36e7			1.97e7	
CG17658	SID104184084	4.33e7	4.73e7		2.16e7	2.23e7
CG33270	SID104190376	3.94e7	4.75e7		2.24e7	2.53e7
CG32305	SID104188406	3.24e7	4.42e7		1.73e7	1.98e7
Rpp14b (Ribonuclease P/MRP subunit p14 b)	SID104194855	2.78e7	6.92e7		1.57e7	2.52e7
comm2	SID104189673	4.11e7	4.21e7		1.92e7	1.80e7
comm2	SID104190669	4.36e7	4.70e7		1.88e7	1.96e7
subdued	SID104194929	3.19e7	2.74e7		1.50e7	1.36e7
CG8675	SID104199909	2.67e7	3.35e7		1.35e7	1.50e7
pcs (parcas)	SID104186834	4.44e7	3.68e7		2.09e7	1.77e7
Cpr97Eb (Cuticular protein 97Eb)	SID104194915	3.66e7	5.33e7		1.86e7	2.11e7
CG42780	SID104197306	3.26e7	3.91e7		1.60e7	1.64e7
Tip60 (Tat interactive protein 60kDa)	SID104198453	4.29e7	4.63e7		2.69e7	2.81e7
CG15605	SID104186350	4.37e7	3.93e7		1.91e7	1.94e7
SRPK (SR Protein Kinase)	SID104186882	2.52e7	1.87e7		1.15e7	1.01e7
Tmem43 (Transmembrane protein 43)	SID104190756	3.95e7	5.73e7		1.77e7	2.34e7
eIF4H2 (eukaryotic translation initiation factor 4H2)	SID104194374	4.97e7	4.97e7		2.28e7	2.36e7
synr (sayonara)	SID104182161	2.68e7	3.07e7		1.32e7	1.24e7
COX6B (Cytochrome c oxidase subunit 6B)	SID104199382	5.65e7	4.97e7		2.30e7	2.04e7
Ccp84Aa	SID104192378	4.47e7	3.34e7		2.22e7	1.59e7
CG2680	SID104198258	4.54e7	4.79e7	2	2.28e7	2.02e7
Gr22e (Gustatory receptor 22e)	SID104200704	3.85e7	3.10e7		1.82e7	1.59e7
CG6195	SID104195781	4.08e7	5.03e7		6.50e7	2.19e7
Snx16 (Sorting nexin 16)	SID104186776	4.22e7	4.21e7		2.08e7	2.11e7
PIG-Wb (Phosphatidylinositol glycan anchor biosynthesis class W b)	SID104188318	3.72e7	4.23e7		1.95e7	1.90e7
apt (apontic)	SID104184463	3.90e7			1.95e7	
apt (apontic)	SID104202635	4.99e7	3.40e7		2.28e7	1.45e7
pira (pirate)	SID104199286	3.07e7	4.86e7		1.55e7	2.37e7
p-cup (presidents-cup)	SID104199305	2.29e7	2.09e7		1.30e7	1.09e7
Rack1 (Receptor of activated protein kinase C 1)	SID104183197	3.29e7	3.74e7		1.30e7	1.58e7
beat-VII (beaten path VII)	SID104193572	6.02e7	3.84e7		2.21e7	2.07e7
beat-VII (beaten path VII)	SID104194535	2.38e7	3.97e7		1.29e7	1.77e7
beat-VII (beaten path VII)	SID104194536	2.47e7	3.82e7		1.29e7	1.63e7
beat-VII (beaten path VII)	SID104202184	3.08e7	3.97e7		1.42e7	1.87e7
CG6701	SID104186799	3.62e7	3.09e7		1.40e7	1.42e7
CG12511	SID104181963	3.34e7	2.76e7		1.46e7	1.30e7
CG34126	SID104182518	3.35e7	2.68e7		1.72e7	1.45e7
CG34126	SID104201652	4.49e7	7.49e7		2.28e7	3.68e7
CG13484	SID104189818	3.43e7	3.49e7		1.57e7	1.51e7
AQP (aquaporin)	SID104185914	2.19e7	3.43e7		1.24e7	1.58e7
CG2211	SID104188351	3.53e7	4.93e7		1.72e7	2.08e7
CG34199	SID104185659	3.48e7	3.72e7		1.67e7	2.15e7
CG12025	SID104188022	3.69e7	3.50e7		1.86e7	1.81e7
CG10038	SID104193970	4.01e7	4.76e7		1.56e7	2.16e7
CG34404	SID104195127	4.06e7	5.69e7		1.89e7	6.73e7
CG34404	SID104195770	3.88e7	4.73e7		1.57e7	1.97e7
St4 (Sulfotransferase 4)	SID104186800	3.37e7	3.56e7		1.78e7	1.81e7
CG4306	SID104190201	2.99e7	4.80e7		1.61e7	1.81e7
YME1L (YME1 like ATPase)	SID104184170	3.66e7			1.90e7	
CG11999	SID104191977	3.31e7	2.65e7		1.80e7	1.42e7
CG13228	SID104186140	1.97e7	3.61e7		9.10e6	1.43e7
CG10803	SID104197555	5.15e7	5.04e7		2.42e7	2.29e7
nst (nesthocker)	SID104189547	4.19e7	4.13e7		2.67e7	1.67e7
Dhx15 (DEAH-box helicase 15)	SID104185828	4.19e7			2.31e7	
CG31091	SID104195725	4.38e7	6.04e7		2.13e7	2.48e7
tna (tonalli)	SID104188845	4.73e7	4.87e7		2.40e7	2.12e7
tna (tonalli)	SID104190729	1.95e7	2.66e7		1.00e7	1.07e7
tna (tonalli)	SID104202593	3.30e7	3.42e7		1.61e7	1.62e7

Entries above whose gene name starts with P or p (4):
gene	PubChem SID	calcium entry signal, replicate 1 (fluorescence units)	calcium entry signal, replicate 2 (fluorescence units)	entry to resting ratio	resting calcium signal, replicate 1 (fluorescence units)	resting calcium signal, replicate 2 (fluorescence units)
pcs (parcas)	SID104186834	4.44e7	3.68e7		2.09e7	1.77e7
PIG-Wb (Phosphatidylinositol glycan anchor biosynthesis class W b)	SID104188318	3.72e7	4.23e7		1.95e7	1.90e7
pira (pirate)	SID104199286	3.07e7	4.86e7		1.55e7	2.37e7
p-cup (presidents-cup)	SID104199305	2.29e7	2.09e7		1.30e7	1.09e7
